Results are given in words; binding and its absence hold for the method and conditions named. Binding seen in cells or lysates may run through a third protein. Where a sequence is shown, tags or fusion partners need not be part of it.

Protein sequences, listed by entry. Tags and fused reporters are not part of them. Residues count along the entry.
UniProt P30101, residues 25-505: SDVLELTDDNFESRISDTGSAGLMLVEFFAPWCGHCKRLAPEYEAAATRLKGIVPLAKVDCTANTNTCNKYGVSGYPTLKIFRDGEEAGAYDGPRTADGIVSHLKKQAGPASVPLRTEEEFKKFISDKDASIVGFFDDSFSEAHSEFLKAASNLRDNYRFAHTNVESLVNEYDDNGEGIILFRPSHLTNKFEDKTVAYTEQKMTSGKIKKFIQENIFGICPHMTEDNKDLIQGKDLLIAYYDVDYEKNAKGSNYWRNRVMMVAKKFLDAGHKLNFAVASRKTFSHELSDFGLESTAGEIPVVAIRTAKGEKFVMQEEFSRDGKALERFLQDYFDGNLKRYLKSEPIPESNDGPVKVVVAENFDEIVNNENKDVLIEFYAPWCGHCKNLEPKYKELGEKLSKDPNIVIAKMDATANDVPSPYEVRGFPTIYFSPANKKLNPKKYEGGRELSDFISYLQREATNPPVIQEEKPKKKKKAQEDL

For this assay, the target named is T1, 1700029I15Rik-3 × FLAG (mouse) (UniProt Q8CF31).
T1 sequence: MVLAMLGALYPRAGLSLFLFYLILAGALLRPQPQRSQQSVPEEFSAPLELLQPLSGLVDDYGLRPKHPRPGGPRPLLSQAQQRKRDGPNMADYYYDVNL
The experiment in a line: co-IP; lysates of HEK293T cells transiently expressing 1700029I15Rik-3 × FLAG; antibody-conjugated magnetic beads; SDS-PAGE and Western blot of endogenous partners. Background: Immunoblotting shows a protein as a band on a membrane.

Turning to “endogenous PDIA3 of HEK293T cells (from UniProt P30101 25-505)”, the binding result is given as “no binding”.

The values above are taken from paper PMC9974436.
